Converted amounts (≈) assume the structure as drawn. Further values from the same series stand in other lists.
System: Escherichia coli
Assay: minimum inhibitory concentration (MIC)
Experimental: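 Broth microdilution MIC (Sensititre BOPO7F bovine plate, CLSI methods) of 19 antimicrobials against field isolates of P. multocida, M. haemolytica, H. somni (deep nasopharyngeal swabs) and E. coli, Enterococcus spp. (rectal swabs) from weaned dairy heifers. Incubation 16-24 h at 35 C. MIC is the lowest concentration preventing visible growth. Values with <= or > lie at the tested range limits. Trimethoprim-sulfamethoxazole is given as the trimethoprim component of a 1:19 mixture.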

CN(C)[C@@H]1C(O)=C(C(N)=O)C(=O)[C@@]2(O)C(O)=C3C(=O)c4c(O)cccc4[C@@](C)(O)[C@H]3C[C@@H]12 [Tetracycline]
Details	minimum inhibitory concentration [µg/mL]
isolate (source animal id): 1	1 (≈ 2.25 µM)
isolate (source animal id): 2	> 8
isolate (source animal id): 3	> 8
isolate (source animal id): 4	> 8
isolate (source animal id): 5	> 8
isolate (source animal id): 6	> 8
isolate (source animal id): 7	> 8
isolate (source animal id): 17	> 8
isolate (source animal id): 18	> 8
isolate (source animal id): 19	1 (≈ 2.25 µM)
isolate (source animal id): 20	> 8
isolate (source animal id): 21	> 8
isolate (source animal id): 22	1 (≈ 2.25 µM)
isolate (source animal id): 23	1 (≈ 2.25 µM)
isolate (source animal id): 24	> 8
isolate (source animal id): 25	> 8
isolate (source animal id): 26	1 (≈ 2.25 µM)
isolate (source animal id): 27	> 8
isolate (source animal id): 28	1 (≈ 2.25 µM)
isolate (source animal id): 29	> 8
isolate (source animal id): 30	> 8
isolate (source animal id): 31	> 8
isolate (source animal id): 32	> 8
isolate (source animal id): 33	> 8
isolate (source animal id): 34	> 8
isolate (source animal id): 35	> 8
isolate (source animal id): 36	> 8
isolate (source animal id): 37	> 8
isolate (source animal id): 38	> 8
isolate (source animal id): 39	> 8
isolate (source animal id): 40	> 8
isolate (source animal id): 41	> 8
isolate (source animal id): 42	> 8
isolate (source animal id): 43	> 8
isolate (source animal id): 44	> 8
isolate (source animal id): 45	> 8
isolate (source animal id): 46	> 8
isolate (source animal id): 47	> 8
isolate (source animal id): 48	> 8
isolate (source animal id): 49	> 8
isolate (source animal id): 50	> 8
isolate (source animal id): 51	> 8
isolate (source animal id): 52	1 (≈ 2.25 µM)
isolate (source animal id): 53	> 8
isolate (source animal id): 54	> 8
isolate (source animal id): 55	> 8
isolate (source animal id): 56	2 (≈ 4.5 µM)
isolate (source animal id): 57	> 8
isolate (source animal id): 58	> 8
isolate (source animal id): 59	1 (≈ 2.25 µM)
isolate (source animal id): 60	> 8
isolate (source animal id): 61	> 8
isolate (source animal id): 62	> 8
isolate (source animal id): 63	> 8
isolate (source animal id): 64	> 8
isolate (source animal id): 65	> 8
isolate (source animal id): 66	> 8
isolate (source animal id): 67	> 8
isolate (source animal id): 68	> 8
isolate (source animal id): 69	> 8
isolate (source animal id): 70	> 8
isolate (source animal id): 71	> 8
isolate (source animal id): 72	> 8
isolate (source animal id): 73	1 (≈ 2.25 µM)
isolate (source animal id): 74	> 8
isolate (source animal id): 75	> 8
isolate (source animal id): 76	> 8
isolate (source animal id): 77	> 8
isolate (source animal id): 78	> 8
isolate (source animal id): 79	> 8
isolate (source animal id): 80	1 (≈ 2.25 µM)
isolate (source animal id): 81	> 8
isolate (source animal id): 82	> 8
isolate (source animal id): 83	> 8
isolate (source animal id): 84	> 8
isolate (source animal id): 85	1 (≈ 2.25 µM)
isolate (source animal id): 86	> 8
isolate (source animal id): 87	> 8
isolate (source animal id): 88	> 8
isolate (source animal id): 89	> 8
isolate (source animal id): 90	> 8
isolate (source animal id): 91	> 8
isolate (source animal id): 92	> 8
isolate (source animal id): 93	> 8
isolate (source animal id): 94	> 8
isolate (source animal id): 95	> 8
isolate (source animal id): 96	> 8
isolate (source animal id): 97	> 8
isolate (source animal id): 189	> 8
isolate (source animal id): 190	> 8
isolate (source animal id): 191	1 (≈ 2.25 µM)
isolate (source animal id): 192	> 8
isolate (source animal id): 193	> 8
isolate (source animal id): 194	1 (≈ 2.25 µM)
isolate (source animal id): 195	1 (≈ 2.25 µM)
isolate (source animal id): 196	> 8
isolate (source animal id): 197	> 8
isolate (source animal id): 198	> 8
isolate (source animal id): 199	> 8
isolate (source animal id): 200	> 8
isolate (source animal id): 201	> 8
isolate (source animal id): 202	> 8
isolate (source animal id): 203	> 8
isolate (source animal id): 204	> 8
isolate (source animal id): 205	> 8
isolate (source animal id): 206	1 (≈ 2.25 µM)
isolate (source animal id): 207	> 8
isolate (source animal id): 208	> 8
isolate (source animal id): 209	> 8
isolate (source animal id): 210	> 8
isolate (source animal id): 211	> 8
isolate (source animal id): 212	> 8
isolate (source animal id): 213	> 8
isolate (source animal id): 214	> 8
isolate (source animal id): 215	1 (≈ 2.25 µM)
isolate (source animal id): 216	> 8
isolate (source animal id): 217	1 (≈ 2.25 µM)
isolate (source animal id): 218	2 (≈ 4.5 µM)
isolate (source animal id): 219	> 8
isolate (source animal id): 220	> 8
